Assay in all cases: log2 fold change, soluble protein after heating vs DMSO (PISA); higher = thermal stabilisation; K562 lysate, 10 uM; active = over 0.2 and 3.5 SD of the protein, either way, in both replicates (recomputed)
Compound in assay [1]: c1ccc([C@@H]2C[C@H]2NC2CCNCC2)cc1
In short, it runs like this:
(§1)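 Soluble protein was defined as the supernatant remaining after 21,000xg for 90 min, following pooling of heated aliquots and adjustment to 0.5% NP-40 at 4°C. Before that, crude K562 extract at 1 mg/mL protein in PBS pH 7.4 with 1 mM MgCl2 was treated with 10 μM compound for 30 min and heated for 3 min across 48°C-58°C. Quantification used TMTpro 16plex LC-MS/MS with channel sums equalised, and values are log-two fold changes in thermal stability relative to solvent controls from duplicates.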

Sequences of proteins named here, by UniProt entry; tags and fusion partners are left off. A change or cut given only in a name is not applied to a line headed by its entry.
UniProt P16591: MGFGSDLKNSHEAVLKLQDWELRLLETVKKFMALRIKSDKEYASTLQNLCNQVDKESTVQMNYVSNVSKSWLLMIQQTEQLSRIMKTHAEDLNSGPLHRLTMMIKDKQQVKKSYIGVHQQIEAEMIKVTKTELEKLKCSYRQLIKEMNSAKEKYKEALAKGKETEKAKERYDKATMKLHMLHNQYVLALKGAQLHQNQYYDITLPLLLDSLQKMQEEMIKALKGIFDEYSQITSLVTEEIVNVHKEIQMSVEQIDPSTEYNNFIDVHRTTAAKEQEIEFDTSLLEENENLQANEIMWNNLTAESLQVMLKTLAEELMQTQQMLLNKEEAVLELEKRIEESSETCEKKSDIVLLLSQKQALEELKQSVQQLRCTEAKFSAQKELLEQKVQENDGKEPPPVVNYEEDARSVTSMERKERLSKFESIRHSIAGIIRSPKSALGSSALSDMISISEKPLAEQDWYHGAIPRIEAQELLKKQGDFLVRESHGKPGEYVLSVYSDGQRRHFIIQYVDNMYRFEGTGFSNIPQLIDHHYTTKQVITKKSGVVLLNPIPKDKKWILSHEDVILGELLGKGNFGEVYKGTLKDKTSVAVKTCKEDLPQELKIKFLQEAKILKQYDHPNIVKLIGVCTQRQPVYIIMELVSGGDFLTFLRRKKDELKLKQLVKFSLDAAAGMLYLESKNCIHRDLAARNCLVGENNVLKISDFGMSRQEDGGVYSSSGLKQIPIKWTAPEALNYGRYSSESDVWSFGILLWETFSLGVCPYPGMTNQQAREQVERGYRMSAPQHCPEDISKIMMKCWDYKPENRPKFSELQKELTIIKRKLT
UniProt Q9NPI8: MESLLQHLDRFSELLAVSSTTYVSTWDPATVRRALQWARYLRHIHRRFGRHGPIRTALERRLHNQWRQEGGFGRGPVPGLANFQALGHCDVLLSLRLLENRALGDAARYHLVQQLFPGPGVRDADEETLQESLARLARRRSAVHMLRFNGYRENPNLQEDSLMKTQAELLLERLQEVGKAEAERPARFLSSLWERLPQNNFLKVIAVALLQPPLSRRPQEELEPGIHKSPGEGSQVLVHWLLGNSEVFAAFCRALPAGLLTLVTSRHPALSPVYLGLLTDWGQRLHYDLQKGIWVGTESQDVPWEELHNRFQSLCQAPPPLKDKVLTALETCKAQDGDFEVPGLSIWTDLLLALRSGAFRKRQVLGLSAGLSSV
UniProt Q96SL8: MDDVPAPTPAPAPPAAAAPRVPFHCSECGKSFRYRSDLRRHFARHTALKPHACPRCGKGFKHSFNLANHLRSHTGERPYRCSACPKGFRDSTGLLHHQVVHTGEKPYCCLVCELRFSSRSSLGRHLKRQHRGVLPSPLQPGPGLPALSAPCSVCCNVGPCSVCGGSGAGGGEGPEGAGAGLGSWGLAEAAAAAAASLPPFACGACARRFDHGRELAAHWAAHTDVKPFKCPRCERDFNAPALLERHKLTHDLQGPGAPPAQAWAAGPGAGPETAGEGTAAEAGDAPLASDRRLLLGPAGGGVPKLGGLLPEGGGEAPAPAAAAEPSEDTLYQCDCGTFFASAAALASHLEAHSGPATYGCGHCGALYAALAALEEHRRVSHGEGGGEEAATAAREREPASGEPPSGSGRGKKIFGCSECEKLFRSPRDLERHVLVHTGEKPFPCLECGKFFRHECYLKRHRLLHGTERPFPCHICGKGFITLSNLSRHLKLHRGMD
UniProt Q9BSK4: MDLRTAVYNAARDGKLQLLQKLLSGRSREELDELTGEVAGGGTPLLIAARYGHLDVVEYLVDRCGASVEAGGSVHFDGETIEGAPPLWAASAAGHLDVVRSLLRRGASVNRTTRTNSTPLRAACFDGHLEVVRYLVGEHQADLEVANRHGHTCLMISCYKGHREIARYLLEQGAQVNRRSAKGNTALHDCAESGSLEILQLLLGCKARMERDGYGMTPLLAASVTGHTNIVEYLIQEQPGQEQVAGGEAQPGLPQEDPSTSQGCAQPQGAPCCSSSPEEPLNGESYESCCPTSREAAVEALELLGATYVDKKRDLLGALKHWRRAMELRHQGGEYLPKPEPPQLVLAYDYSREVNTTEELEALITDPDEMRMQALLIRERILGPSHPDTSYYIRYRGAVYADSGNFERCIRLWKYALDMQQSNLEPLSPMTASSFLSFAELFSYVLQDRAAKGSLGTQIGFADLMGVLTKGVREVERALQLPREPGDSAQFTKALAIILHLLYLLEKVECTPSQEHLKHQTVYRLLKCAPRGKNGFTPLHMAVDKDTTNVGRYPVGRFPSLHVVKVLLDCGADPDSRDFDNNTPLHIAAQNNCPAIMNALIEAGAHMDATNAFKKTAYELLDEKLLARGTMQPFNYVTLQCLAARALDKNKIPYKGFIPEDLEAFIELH
UniProt Q9NW38: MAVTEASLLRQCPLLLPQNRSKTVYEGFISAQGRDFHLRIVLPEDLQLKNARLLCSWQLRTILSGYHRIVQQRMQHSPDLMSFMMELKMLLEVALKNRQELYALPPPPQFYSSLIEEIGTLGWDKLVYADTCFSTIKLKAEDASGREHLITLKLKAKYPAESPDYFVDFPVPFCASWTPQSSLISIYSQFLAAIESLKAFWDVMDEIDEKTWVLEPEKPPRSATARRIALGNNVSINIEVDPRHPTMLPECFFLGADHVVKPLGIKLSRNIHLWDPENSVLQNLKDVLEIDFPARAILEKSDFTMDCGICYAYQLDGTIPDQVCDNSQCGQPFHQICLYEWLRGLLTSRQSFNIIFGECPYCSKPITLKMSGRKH
UniProt Q4VC44: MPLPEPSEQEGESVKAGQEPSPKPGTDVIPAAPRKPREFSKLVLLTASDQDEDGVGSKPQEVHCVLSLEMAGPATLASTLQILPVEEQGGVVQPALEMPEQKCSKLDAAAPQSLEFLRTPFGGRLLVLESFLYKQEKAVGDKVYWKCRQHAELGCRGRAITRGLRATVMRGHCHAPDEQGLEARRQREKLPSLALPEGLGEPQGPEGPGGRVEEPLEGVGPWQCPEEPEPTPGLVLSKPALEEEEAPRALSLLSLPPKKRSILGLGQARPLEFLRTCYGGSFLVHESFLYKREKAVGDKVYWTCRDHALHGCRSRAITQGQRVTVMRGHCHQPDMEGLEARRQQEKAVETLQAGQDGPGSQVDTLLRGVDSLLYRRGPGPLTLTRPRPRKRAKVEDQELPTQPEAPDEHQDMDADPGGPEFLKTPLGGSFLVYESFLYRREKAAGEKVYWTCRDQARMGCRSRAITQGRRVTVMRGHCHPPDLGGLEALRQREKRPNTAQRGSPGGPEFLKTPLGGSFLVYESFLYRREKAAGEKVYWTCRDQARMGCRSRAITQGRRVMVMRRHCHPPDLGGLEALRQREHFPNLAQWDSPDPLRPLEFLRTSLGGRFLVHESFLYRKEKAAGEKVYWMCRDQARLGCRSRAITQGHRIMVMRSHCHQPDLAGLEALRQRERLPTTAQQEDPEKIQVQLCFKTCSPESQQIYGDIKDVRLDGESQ
UniProt Q13045: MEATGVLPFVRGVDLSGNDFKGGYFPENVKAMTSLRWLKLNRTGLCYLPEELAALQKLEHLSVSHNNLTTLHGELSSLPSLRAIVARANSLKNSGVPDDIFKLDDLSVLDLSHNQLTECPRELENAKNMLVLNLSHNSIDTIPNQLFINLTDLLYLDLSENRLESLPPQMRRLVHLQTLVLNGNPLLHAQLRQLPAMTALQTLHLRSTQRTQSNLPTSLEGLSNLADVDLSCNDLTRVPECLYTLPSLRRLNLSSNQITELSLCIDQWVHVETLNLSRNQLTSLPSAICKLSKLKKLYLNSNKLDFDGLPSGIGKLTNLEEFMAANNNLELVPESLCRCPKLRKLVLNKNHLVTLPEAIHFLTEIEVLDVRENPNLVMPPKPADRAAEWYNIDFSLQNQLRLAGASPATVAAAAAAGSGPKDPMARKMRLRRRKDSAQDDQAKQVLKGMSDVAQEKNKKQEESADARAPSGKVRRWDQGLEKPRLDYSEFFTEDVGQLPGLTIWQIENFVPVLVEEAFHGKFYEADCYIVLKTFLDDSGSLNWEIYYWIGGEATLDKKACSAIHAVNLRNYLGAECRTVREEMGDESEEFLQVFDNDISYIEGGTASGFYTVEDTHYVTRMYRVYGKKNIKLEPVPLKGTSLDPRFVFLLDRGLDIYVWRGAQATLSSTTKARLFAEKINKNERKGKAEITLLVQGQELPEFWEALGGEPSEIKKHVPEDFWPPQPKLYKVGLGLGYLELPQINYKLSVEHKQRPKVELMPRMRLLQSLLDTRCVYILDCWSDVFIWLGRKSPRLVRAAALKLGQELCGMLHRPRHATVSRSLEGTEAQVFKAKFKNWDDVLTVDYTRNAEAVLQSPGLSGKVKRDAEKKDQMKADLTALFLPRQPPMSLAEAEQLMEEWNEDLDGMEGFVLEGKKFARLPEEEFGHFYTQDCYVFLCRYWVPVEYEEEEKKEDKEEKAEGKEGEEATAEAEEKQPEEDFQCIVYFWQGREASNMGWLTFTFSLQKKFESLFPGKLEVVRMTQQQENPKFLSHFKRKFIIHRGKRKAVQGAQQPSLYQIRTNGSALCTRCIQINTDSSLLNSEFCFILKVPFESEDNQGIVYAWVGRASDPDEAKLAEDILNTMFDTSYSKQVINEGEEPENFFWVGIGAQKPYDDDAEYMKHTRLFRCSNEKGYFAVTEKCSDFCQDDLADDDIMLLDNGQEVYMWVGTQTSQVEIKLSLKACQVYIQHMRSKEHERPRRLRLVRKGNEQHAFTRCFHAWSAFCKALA
UniProt Q4L180: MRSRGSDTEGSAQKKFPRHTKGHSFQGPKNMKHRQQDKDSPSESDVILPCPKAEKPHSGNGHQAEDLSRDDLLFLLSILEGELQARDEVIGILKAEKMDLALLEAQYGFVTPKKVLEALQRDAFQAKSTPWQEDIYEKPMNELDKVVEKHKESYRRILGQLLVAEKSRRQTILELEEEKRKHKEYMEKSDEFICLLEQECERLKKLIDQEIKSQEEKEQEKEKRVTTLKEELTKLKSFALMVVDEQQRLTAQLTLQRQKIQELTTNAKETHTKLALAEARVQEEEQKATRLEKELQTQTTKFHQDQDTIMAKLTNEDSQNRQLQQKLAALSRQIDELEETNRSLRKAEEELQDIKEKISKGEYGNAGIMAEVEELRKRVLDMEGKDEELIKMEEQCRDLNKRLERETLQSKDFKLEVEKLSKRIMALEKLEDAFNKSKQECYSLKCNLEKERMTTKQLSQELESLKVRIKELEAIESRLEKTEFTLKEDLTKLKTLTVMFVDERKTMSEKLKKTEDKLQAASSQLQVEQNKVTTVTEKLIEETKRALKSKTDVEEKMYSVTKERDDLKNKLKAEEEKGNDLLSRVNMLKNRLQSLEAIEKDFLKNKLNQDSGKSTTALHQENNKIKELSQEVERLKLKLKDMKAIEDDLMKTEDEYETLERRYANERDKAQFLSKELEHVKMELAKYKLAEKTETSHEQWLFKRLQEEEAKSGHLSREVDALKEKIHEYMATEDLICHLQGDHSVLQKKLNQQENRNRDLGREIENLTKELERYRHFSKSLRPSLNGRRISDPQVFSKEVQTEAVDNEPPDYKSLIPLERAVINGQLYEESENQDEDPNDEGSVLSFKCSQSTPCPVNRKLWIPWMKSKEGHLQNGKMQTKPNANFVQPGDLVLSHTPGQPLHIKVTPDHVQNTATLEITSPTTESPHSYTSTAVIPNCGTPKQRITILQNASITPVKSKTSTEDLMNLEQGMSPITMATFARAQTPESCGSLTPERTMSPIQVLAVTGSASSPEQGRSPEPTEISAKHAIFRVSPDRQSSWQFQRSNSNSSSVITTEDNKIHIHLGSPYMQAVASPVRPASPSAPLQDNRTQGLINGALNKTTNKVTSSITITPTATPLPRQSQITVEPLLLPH
UniProt Q96JP0: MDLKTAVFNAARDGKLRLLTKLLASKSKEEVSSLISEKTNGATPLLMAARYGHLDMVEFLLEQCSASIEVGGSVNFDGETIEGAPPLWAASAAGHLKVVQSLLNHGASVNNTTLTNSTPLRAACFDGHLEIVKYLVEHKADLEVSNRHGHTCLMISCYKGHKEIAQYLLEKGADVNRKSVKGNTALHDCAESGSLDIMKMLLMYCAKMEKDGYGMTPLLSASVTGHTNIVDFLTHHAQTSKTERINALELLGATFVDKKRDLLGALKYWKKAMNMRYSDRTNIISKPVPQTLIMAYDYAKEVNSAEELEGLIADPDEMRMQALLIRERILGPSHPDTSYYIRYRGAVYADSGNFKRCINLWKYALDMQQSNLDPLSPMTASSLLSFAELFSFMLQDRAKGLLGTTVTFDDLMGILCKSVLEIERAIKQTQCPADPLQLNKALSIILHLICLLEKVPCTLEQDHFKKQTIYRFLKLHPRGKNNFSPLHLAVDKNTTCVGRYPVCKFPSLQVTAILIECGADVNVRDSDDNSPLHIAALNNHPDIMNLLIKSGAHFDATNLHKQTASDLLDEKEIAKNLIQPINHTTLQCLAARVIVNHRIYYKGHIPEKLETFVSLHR

Compound in assay [2]: Cc1sc2c(c1C)C(c1ccc(Cl)cc1)=N[C@@H](CC(=O)OC(C)(C)C)c1nnc(C)n1-2
In short, it runs like this:
as §1

Compound in assay [3]: CC1=C2C(=CC=C1)N=C(N(C2=O)C3=CC=CC=C3C)CN4C=NC5=C(N=CN=C54)N
In short, it runs like this:
as §1

Compound in assay [4]: C1=CC=C(C=C1)[C@H](COC2=CC3=C(C=C2)NC(=O)N3)NC(=O)C4=CC=CN(C4=O)CC5=CC(=C(C=C5)F)F
In short, it runs like this: as §1

Compound in assay [5]: CC1=C(SC2=C1C(=N[C@H](C3=NN=C(N32)C)CC(=O)N)C4=CC=C(C=C4)Cl)C
A digest of the protocol: as §1

This is one part of the list.

Consider FER isoform 3 (UniProt P16591), for which, in assay [1], the log2 fold change is inactive: -0.187.
For the target FAT1 (UniProt Q14517), the log2 fold change in assay [1] is inactive: -0.092.
FCF1 (UniProt Q9Y324): the log2 fold change in assay [2] was inactive: -0.074; in assay [1], inactive: 0.02.
Consider FANCG (UniProt O15287), for which the log2 fold change in assay [3] was inactive: -0.063; in assay [1] it was inactive: 0.028.
Take FBH1 isoform 2 (UniProt Q8NFZ0): the log2 fold change in assay [4] was inactive: -0.052; in assay [5] it was inactive: 0.05; in assay [1], inactive: 0.083.
Take FANCF (UniProt Q9NPI8): the log2 fold change in assay [1] was inactive: 0.266.
On to FBXL15 (UniProt Q9H469), for which the log2 fold change in assay [3] was inactive: -0.029; in assay [2] it was inactive: -0.038; in assay [1], inactive: -0.093.
FARP2 (UniProt O94887): the log2 fold change in assay [4] is inactive: -0.229; in assay [5] it was inactive: 0.062; in assay [2], inactive: -0.004; in assay [1] it was inactive: -0.057.
Take FAM83H (UniProt Q6ZRV2): the results for the log2 fold change in assay [3] and in assay [1] were inactive: -0.173 and inactive: -0.03, respectively.
On to FEZ2 (UniProt Q9UHY8), for which, in assay [1], the log2 fold change is inactive: -0.046.
Consider FARP2 (UniProt H7C3M7), for which the log2 fold change in assay [3] was inactive: -0.018; in assay [2] it was inactive: -0.023; in assay [1], inactive: -0.015.
For FEN1 (UniProt I3L3E9), the log2 fold change was inactive: -0.074 in assay [3] and inactive: 0.011 in assay [1].
For the target FIZ1 (UniProt Q96SL8), the log2 fold change was inactive: 0.014 in assay [4], inactive: 0.113 in assay [5] and inactive: -0.239 in assay [1].
Take FANCA (UniProt O15360): the results for the log2 fold change in assay [3] and in assay [2] were inactive: 0.115 and inactive: -0.035, respectively.
FGF13 isoform 3 (UniProt Q92913): the log2 fold change in assay [4] is inactive: 0.001; in assay [5] it was inactive: -0.072; in assay [2], inactive: -0.007; in assay [1], inactive: 0.032.
As for FEM1A (UniProt Q9BSK4), in assay [3], the log2 fold change is inactive: 0.072.
With FMNL2 isoform 3 (UniProt Q96PY5), the log2 fold change in assay [2] was inactive: 0.089.
On to FANCL isoform 2 (UniProt Q9NW38), for which the log2 fold change was inactive: 0.014 in assay [4], inactive: 0.026 in assay [5], inactive: 0.06 in assay [2] and inactive: 0.028 in assay [1].
Regarding FLYWCH1 isoform 3 (UniProt Q4VC44), in assay [2], the log2 fold change was inactive: -0.058.
In the case of FBXO11 isoform 5 (UniProt Q86XK2), the log2 fold change in assay [4] was inactive: -0.291; in assay [5], inactive: -0.156; in assay [2], inactive: 0.042; in assay [1], inactive: 0.021.
FGFR1OP2 isoform 2 (UniProt Q9NVK5): the log2 fold change in assay [1] is inactive: 0.105.
As to FLII isoform 2 (UniProt Q13045), in assay [3], the log2 fold change is inactive: 0.052.
For the target FHAD1 isoform 3 (UniProt B1AJZ9), the log2 fold change in assay [3] is inactive: 0.204; in assay [2], inactive: -0.047.
Consider FHL1 isoform 4 (UniProt Q13642), for which, in assay [1], the log2 fold change is inactive: 0.246.
In the case of FOXJ2 (UniProt Q9P0K8), the log2 fold change in assay [4] was inactive: 0.022; in assay [5] it was inactive: 0.06; in assay [2], inactive: 0.015; in assay [1], inactive: 0.039.
In the case of FCHSD2 (UniProt O94868), the log2 fold change in assay [2] was inactive: 0.098.
Consider FKRP (UniProt Q9H9S5), for which the log2 fold change in assay [3] was inactive: 0.078; in assay [2], inactive: -0.039; in assay [1], inactive: -0.136.
Consider FILIP1L (UniProt Q4L180), for which the log2 fold change in assay [2] was inactive: -0.358.
In the case of FOSL1 (UniProt P15407), the log2 fold change was inactive: -0.076 in assay [2] and inactive: -0.048 in assay [1].
As for FEM1C (UniProt Q96JP0), in assay [2], the log2 fold change was inactive: -0.021.
As for FBXW11 (UniProt Q9UKB1), the log2 fold change in assay [4] is inactive: 0.12; in assay [5] it was inactive: -0.077; in assay [2] it was inactive: 0.052; in assay [1] it was inactive: -0.005.
As to FANCE (UniProt Q9HB96), the log2 fold change was inactive: -0.14 in assay [2] and inactive: 0.087 in assay [1].
For FOS (UniProt P01100), the log2 fold change in assay [1] was inactive: -0.001.
Consider FLNA (UniProt H0Y5C6), for which the log2 fold change is inactive: 0.08 in assay [3] and inactive: 0.039 in assay [2].
Turning to FNDC3A (UniProt Q9Y2H6), the log2 fold change in assay [1] is inactive: -0.136.
